Some of the results follow.
tested on: T1, CTL2-GFP (C. trachomatis L2/434/Bu, GFP-expressing); set-up: species or system HeLa; Intracellular C. trachomatis growth in HeLa cells, bulk GFP fluorescence relative to DMSO; conditions: bulk GFP, single well; 28.5 h, 10 µM; inhibitor
T1 construct: L2/434/Bu, GFP-expressing

SMILES	% of control remaining [%]
CCNc1n[nH]c(N)c1-c1nc(-c2ccc(OC)cc2)no1 [CBK288557]	118.939
COc1ccccc1C(=O)Nc1ccccc1N1CCN(C)CC1 [CBK267938]	90.1011
COc1cc(C(=O)N2CCC3(CC2)CC(=O)c2ccc(C)cc2O3)cc(-c2ccc(OC)c(OC)c2)c1 [CBK168282]	145.89
Cc1ncc(-c2ccc3ccccc3c2)s1 [CBK019439B]	145.795
O=S(=O)(NCCN1CCCC1)c1cccc2nsnc12 [CBK261132]	124.821
Cc1c(CCC(=O)N2CCCC(C(=O)O)C2)c(=O)oc2c(C)c(O)ccc12 (stereo not shown) [CBK286764]	134.196
N#Cc1c(NC(=O)CN2CCCCC2)sc2c1CCCC2 [CBK261619]	100
CCn1cc(CN2CCOC(c3cccc(-c4ccc(OC)cc4)n3)C2)c(C)n1 (stereo not shown) [CBK286250]	130.867
O=C1CCCCCC1C(Nc1ccc2ccccc2c1)c1cccnc1 (stereo not shown) [CBK293919]	139.129
CN(C)S(=O)(=O)c1ccc(C(=O)Nc2ccccc2O)cc1 [CBK267809]	119.116
FC(F)Oc1ccc(NC(=S)NCCN2CCOCC2)cc1 [CBK028000]	143.873
CCCC(=O)c1ccc(S(=O)(=O)N2CCCN(Cc3c(C)[nH]c(C(=O)OCC)c3C)CC2)cc1 [CBK062947]	106.565
COc1cccc(CNc2ccc(N3CCOCC3)cc2)c1OCc1ccccc1F [CBK074406]	37.6857
COc1ccc2ncc(C(=O)O)c(Nc3ccccc3C)c2c1 [CBK269522C]	135.344
O=C(Nc1cccnc1)N1CCCC(CO)C1 (stereo not shown) [CBK156068]	98.9536
CC(Oc1ccc(C(C)(C)C)cc1)C(=O)Nc1nnc[nH]1 (stereo not shown) [CBK267431]	146.473
Cc1cccc(-c2ccc3c(c2)C(=O)N2CC[C@H](NC(=O)c4cnccn4)[C@H]2C(=O)N3)c1C [CBK289348]	118.034
O=C(c1ccc(N2CCCC2)cc1)N1CCc2sccc2C1c1ccco1 (stereo not shown) [CBK285707]	114.752
COC(=O)c1cc(NC(=O)NCCC2=CCCCC2)cc(C(=O)OC)c1 [CBK044120]	45.4259
COc1ccc(OC)c(-n2c(SCC(=O)N3CCC(C(=O)O)CC3)nc3ccccc3c2=O)c1 [CBK296981]	156.088

SMILES	% of control remaining [%]
COCCNc1cc(-c2ccncc2)ncn1 [CBK037729]	151.263
Cc1ccccc1OCc1nn2c(COc3ccccc3)nnc2s1 [CBK267230]	145.804
Cc1c(CN2CCC(CO)C2)cnn1Cc1ccccc1 (stereo not shown) [CBK282113]	131.572
CC(=O)NCCSc1nc2ccccc2nc1C(F)(F)F [CBK105303]	115.362
CCOC(=O)c1c(-c2cccs2)csc1NC(=O)CN1CCCCCC1 [CBK265294G]	116.391
CCCn1ncc(C(=O)N2CCC(Oc3ccccc3F)CC2)c1C [CBK282169]	99.6565
COc1ccc(CC(=O)N(C)Cc2nnc3ccccn23)cc1 [CBK304935]	84.5456
CCOC(=O)N1CCC(NC(=O)N2CCC(C(=O)O)CC2)CC1 [CBK156080]	97.8837
CN1CCN(Cc2ccc(-c3ccc(C(N)=O)cc3)nc2)CC1 [CBK306750]	109.464
O=C(Nc1ccccc1C(=O)O)c1ccc(S(=O)(=O)N2CCCCC2)cc1 [CBK265174]	134.578
Cn1cccc1C(=O)N[C@H]1CCN2C(=O)N(c3cccc(F)c3)C(=O)[C@@H]2C1 [CBK289549]	97.5368
Cc1ccc(=O)n(CC(=O)N2CCC[C@@H]3NC(=O)c4ccccc4OCCCCC[C@@H]32)n1 [CBK292100]	116.641
CCc1ccc2c(c1)C(CCNC(=O)c1sccc1C)C(=O)N2 (stereo not shown) [CBK306459]	145.415
COC(=O)c1c(C)oc(C)c1S(=O)(=O)Nc1ccc(C(C)C)cc1 [CBK057115]	150.002
O=C(c1cscn1)N1CCN(c2ncccn2)CC1 [CBK144506]	116.851
CN(C)C(CNc1nccnc1-c1ccc(CO)cc1)c1cccnc1 (stereo not shown) [CBK038038]	138.712
CCOCCCNc1c2c(c(C#N)c3nc4ccccc4n13)CCC2 [CBK263151]	109.505
Cc1nccn1CC1(O)CCN(C(=O)C2(c3ccccc3)CC2)CC1 [CBK284659]	84.5194
O=C(O)c1ccccc1C1Nc2ccccc2S(=O)(=O)N1Cc1ccccc1 (stereo not shown) [CBK286587]	92.4523
OC(CNc1nccnc1-c1ccco1)COc1ccccc1 (stereo not shown) [CBK036862]	115.382

Already shown: 2 of the compounds above.
SMILES	% of control remaining [%]
CN1CCN(Cc2ccc(-c3ccc(C(N)=O)cc3)nc2)CC1 [CBK306750]	109.464
O=C(Nc1ccccc1C(=O)O)c1ccc(S(=O)(=O)N2CCCCC2)cc1 [CBK265174]	134.578

From publication PMC12040169 (PLOS Biology, 2025)
